No constants are given. Whether binding was seen depends on the method and setting. In cells and extracts the contact can be indirect. These calls come from enrichment with a bait or labelling near it, and not all partners need be listed. For some of these results: Sequences can lack the tags named with a protein.

Sequences of proteins named here, by UniProt entry; tags and fusion partners are left off. Residues count along the entry.
UniProt P02545, residues 1-646: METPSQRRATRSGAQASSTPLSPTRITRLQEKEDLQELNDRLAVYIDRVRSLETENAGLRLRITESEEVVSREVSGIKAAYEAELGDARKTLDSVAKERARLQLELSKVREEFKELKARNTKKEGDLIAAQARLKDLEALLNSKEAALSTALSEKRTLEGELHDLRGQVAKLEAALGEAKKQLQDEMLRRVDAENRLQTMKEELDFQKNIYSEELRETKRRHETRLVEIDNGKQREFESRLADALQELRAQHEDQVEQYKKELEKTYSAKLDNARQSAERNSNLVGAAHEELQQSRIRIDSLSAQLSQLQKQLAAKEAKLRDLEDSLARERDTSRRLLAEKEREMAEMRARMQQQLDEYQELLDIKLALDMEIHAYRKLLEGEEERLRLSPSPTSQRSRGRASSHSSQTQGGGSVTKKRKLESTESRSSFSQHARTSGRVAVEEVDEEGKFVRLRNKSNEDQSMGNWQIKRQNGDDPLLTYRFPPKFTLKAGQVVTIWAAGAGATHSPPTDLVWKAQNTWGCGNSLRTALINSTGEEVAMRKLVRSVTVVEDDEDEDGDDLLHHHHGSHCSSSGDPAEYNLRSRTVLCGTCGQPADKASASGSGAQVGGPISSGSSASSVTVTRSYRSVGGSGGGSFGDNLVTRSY
UniProt O95347: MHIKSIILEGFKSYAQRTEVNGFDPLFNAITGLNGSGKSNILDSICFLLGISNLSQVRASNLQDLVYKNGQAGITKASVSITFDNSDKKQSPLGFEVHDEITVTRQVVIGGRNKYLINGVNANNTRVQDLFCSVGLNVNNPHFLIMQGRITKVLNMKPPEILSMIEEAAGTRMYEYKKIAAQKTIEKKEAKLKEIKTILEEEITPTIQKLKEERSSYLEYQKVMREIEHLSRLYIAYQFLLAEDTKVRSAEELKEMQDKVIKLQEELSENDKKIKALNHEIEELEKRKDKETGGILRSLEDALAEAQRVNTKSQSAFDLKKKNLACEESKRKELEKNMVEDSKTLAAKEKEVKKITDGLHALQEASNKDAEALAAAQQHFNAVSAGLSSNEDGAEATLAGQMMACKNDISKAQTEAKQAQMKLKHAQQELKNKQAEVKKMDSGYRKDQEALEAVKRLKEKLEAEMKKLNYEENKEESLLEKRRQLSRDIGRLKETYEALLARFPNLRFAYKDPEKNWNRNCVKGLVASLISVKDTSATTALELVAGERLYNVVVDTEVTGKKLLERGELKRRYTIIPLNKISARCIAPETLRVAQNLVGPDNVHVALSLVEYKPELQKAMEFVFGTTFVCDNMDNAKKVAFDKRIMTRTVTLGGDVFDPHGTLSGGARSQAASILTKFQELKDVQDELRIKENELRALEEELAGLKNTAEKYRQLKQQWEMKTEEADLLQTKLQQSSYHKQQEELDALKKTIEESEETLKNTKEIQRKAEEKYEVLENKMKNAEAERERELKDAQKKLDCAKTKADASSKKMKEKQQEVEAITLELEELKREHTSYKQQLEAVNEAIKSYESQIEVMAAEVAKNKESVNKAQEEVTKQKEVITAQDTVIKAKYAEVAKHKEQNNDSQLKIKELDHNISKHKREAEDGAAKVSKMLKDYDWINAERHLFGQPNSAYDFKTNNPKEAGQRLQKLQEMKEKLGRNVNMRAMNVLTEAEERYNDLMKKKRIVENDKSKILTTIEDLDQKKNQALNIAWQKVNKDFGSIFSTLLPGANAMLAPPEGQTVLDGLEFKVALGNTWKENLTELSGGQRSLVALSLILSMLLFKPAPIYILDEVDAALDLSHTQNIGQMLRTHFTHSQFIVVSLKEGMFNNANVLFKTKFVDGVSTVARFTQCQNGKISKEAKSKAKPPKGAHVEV
UniProt O94901: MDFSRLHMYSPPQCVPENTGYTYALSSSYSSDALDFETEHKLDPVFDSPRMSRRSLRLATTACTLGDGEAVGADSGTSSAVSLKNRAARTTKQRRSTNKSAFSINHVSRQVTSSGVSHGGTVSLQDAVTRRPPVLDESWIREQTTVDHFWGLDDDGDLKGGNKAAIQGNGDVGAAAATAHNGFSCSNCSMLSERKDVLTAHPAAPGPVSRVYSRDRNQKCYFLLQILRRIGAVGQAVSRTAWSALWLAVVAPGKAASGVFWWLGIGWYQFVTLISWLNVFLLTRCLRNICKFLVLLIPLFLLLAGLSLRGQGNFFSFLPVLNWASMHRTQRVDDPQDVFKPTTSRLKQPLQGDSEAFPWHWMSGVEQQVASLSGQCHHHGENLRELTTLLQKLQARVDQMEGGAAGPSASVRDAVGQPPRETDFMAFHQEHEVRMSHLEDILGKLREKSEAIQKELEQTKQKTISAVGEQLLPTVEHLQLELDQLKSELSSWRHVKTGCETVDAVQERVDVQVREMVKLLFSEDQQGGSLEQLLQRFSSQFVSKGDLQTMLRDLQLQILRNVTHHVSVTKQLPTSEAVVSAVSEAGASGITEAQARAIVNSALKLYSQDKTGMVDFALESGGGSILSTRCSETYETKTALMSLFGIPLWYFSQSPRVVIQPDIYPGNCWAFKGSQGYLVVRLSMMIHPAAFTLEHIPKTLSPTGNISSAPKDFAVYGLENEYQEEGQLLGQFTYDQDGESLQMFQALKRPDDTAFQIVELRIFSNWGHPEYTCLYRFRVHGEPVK

Test [1] concerns the target Nesprin-2 giant (human (endogenous in HaCaT)) (UniProt Q8WXH0). The experiment in a line: affinity purification with mass spectrometry; immunoprecipitation of endogenous Nesprin-2 from HaCaT cells with mAb K20-478 (and pAbK1); SDS-PAGE, Coomassie bands cut out and identified by mass spectrometry; GFP-specific mAb K3-184-2 as control.
The target of test [2] is T1, GST-Nesprin-2-SMC (human) (UniProt Q8WXH0).
T1 sequence: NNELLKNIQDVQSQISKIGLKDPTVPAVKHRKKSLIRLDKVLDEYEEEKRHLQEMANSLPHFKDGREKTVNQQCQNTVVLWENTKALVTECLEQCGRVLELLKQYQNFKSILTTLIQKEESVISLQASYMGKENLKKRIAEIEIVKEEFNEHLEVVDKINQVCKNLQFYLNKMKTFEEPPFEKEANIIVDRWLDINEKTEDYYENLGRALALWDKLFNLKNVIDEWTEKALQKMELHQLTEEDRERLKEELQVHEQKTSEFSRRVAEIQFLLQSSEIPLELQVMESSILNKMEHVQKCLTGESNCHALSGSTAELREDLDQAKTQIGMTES
In words: affinity purification with mass spectrometry; GST-Nesprin-2-SMC or GST on Glutathione-Sepharose beads incubated with HaCaT cell lysate; precipitate analysed by mass spectrometry; only the target purified.

Regarding Lamin A/C (from UniProt P02545 1-646), in test [1], the binding entry is on record as “binds”.
With “Nesprin-2 giant (from UniProt Q8WXH0-1 1-6885)”, the binding entry in test [2] is “binds”.
On to SMC2 (from UniProt O95347 1-1197), for which, in test [1], the binding result is listed as “binds”.
The same measure, in the same setting: to SUN1 (from UniProt O94901 1-785) belongs “binds”.

The record behind these values is paper PMC5763115, “Nesprin-2 Interacts with Condensin Component SMC2” (International Journal of Cell Biology, 2017).
